Data: paper PMC4299600
Results are given in words; binding and its absence hold for the method and conditions named. In cells and extracts the contact can be indirect. Some results given as binding are weak or reduced against the parent protein; the word gives no strength. Where a sequence is shown, tags or fusion partners need not be part of it.

T1: GST-tagged Cka2 (CK2 subunit Cka2) (S. cerevisiae) (UniProt P19454)
T1 sequence: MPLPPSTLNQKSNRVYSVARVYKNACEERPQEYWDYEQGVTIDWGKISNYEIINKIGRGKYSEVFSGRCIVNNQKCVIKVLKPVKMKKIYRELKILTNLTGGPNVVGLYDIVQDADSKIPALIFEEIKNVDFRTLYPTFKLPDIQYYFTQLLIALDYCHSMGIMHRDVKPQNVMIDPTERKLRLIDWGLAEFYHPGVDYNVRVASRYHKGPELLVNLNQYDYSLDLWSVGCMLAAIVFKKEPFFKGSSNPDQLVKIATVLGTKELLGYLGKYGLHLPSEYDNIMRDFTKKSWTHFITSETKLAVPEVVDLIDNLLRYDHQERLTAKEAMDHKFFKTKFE

T2: GST-tagged Cka1 (CK2 subunit Cka1) (S. cerevisiae) (UniProt P15790)
T2 sequence: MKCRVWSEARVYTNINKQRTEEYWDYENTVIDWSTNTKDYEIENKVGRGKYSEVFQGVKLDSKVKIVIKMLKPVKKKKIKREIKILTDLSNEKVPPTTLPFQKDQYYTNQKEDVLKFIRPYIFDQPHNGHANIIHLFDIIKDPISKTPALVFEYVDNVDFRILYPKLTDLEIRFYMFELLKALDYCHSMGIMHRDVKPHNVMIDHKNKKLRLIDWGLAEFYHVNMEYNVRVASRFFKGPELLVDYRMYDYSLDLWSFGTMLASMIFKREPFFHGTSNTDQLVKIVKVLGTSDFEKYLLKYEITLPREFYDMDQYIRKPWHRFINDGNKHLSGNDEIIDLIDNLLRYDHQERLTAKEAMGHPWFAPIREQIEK


Key:
[1] = molecular target: T1, GST-tagged Cka2 (CK2 subunit Cka2) (S. cerevisiae); test: co-IP; GAL-inducible Cka2-GST or Cka1-GST expressed in BY4741 cka2Δ or cka1Δ cells; cells subjected to osmotic stress (0.7 N NaCl) for the indicated length of time; lysates incubated with glutathione Sepharose beads at 4°C overnight in 1x PBS, 1 mM DTT, 0.1% NP-40, 10% glycerol, protease inhibitors; immunoblot for Cdc14 and total or phospho-Hog1
[2] = molecular target: T2, GST-tagged Cka1 (CK2 subunit Cka1) (S. cerevisiae); test: as above

| binding [1] | binding [2] | Binder |
| --- | --- | --- |
| binds |  | Cdc14 phosphatase (enzyme, UniProt Q00684 1-551) MRRSVYLDNTIEFLRGRVYLGAYDYTPEDTDELVFFTVEDAIFYNSFHLDFGPMNIGHLYRFAVIFHEILNDPENANKAVVFYSSASTRQRANAACMLCCYMILVQAWTPHQVLQPLAQVDPPFMPFRDAGYSNADFEITIQDVVYGVWRAKEKGLIDLHSFNLESYEKYEHVEFGDFNVLTPDFIAFASPQEDHPKGYLATKSSHLNQPFKSVLNFFANNNVQLVVRLNSHLYNKKHFEDIGIQHLDLIFEDGTCPDLSIVKNFVGAAETIIKRGGKIAVHCKAGLGRTGCLIGAHLIYTYGFTANECIGFLRFIRPGMVVGPQQHWLYLHQNDFREWKYTTRISLKPSEAIGGLYPLISLEEYRLQKKKLKDDKRVAQNNIEGELRDLTMTPPSNGHGALSARNSSQPSTANNGSNSFKSSAVPQTSPGQPRKGQNGSNTIEDINNNRNPTSHANRKVVIESNNSDDESMQDTNGTSNHYPKVSRKKNDISSASSSRMEDNEPSATNINNAADDTILRQLLPKNRRVTSGRRTTSAAGGIRKISGSIKK |
| binds | binds | Hog1 kinase (enzyme, UniProt P32485 1-435) MTTNEEFIRTQIFGTVFEITNRYNDLNPVGMGAFGLVCSATDTLTSQPVAIKKIMKPFSTAVLAKRTYRELKLLKHLRHENLICLQDIFLSPLEDIYFVTELQGTDLHRLLQTRPLEKQFVQYFLYQILRGLKYVHSAGVIHRDLKPSNILINENCDLKICDFGLARIQDPQMTGYVSTRYYRAPEIMLTWQKYDVEVDIWSAGCIFAEMIEGKPLFPGKDHVHQFSIITDLLGSPPKDVINTICSENTLKFVTSLPHRDPIPFSERFKTVEPDAVDLLEKMLVFDPKKRITAADALAHPYSAPYHDPTDEPVADAKFDWHFNDADLPVDTWRVMMYSEILDFHKIGGSDGQIDISATFDDQVAAATAAAAQAQAQAQAQVQLNMAAHSHNGAGTTGNDHSDIAGGNKVSDHVAANDTITDYGNQAIQYANEFQQ |
